In paper PMC5380948:
Results are given in words; binding and its absence hold for the method and conditions named. In cells and extracts the contact can be indirect. Tags and fused reporters may be left off the sequences shown.

Biological target: T1, c-Myc-tagged MKRN2 (makorin ring finger protein 2) (mouse) (UniProt Q9ERV1)
T1 sequence: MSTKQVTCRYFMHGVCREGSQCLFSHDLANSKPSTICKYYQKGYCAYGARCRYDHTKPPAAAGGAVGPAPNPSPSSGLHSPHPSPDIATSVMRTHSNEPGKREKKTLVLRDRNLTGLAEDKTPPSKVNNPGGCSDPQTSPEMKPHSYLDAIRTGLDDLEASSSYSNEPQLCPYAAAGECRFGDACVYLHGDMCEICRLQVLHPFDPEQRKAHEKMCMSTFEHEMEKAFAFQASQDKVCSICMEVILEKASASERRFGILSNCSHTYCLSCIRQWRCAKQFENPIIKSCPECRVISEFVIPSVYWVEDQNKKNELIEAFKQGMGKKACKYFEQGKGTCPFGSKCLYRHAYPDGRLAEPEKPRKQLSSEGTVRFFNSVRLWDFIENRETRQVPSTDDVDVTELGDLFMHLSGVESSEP
Experiment: co-IP; 293T cells co-transfected; lysed in 0.5% NP-40, 250 mM NaCl, 10 mM Tris pH 8.0; precipitated with anti-c-Myc antibody-conjugated agarose, washed four times; immunoblot with anti-His or anti-FLAG

“His-tagged PDLIM2 mutant lacking the LIM domain (∆LIM) (domain or fragment)” was tested, and the binding was “no binding”.
